Results from patent US4113714A (American Home Products Corporation, priority 1975, dated 1978).

Assay: general procedure: Boc solid-phase peptide synthesis; Chloromethylated polystyrene resin (0.75 m moles Cl/g); diisopropylcarbodiimide; p-nitrophenyl ester for asparagine
Details: whole synthesis, scale 0.85 m moles, diacetate salt

PEPTIDE1{[Mpa].K.N.F.F.W.K.T.F.T.S.C}$PEPTIDE1,PEPTIDE1,1:R3-12:R3$$$V2.0
crude mass: 4.0 g

Strings that start with PEPTIDE1 are HELM notation: dots part the residues, brackets hold end groups and non-standard residues.
